The list shows a part of the results.
Legend:
Assay in all cases: log2 fold change, soluble protein after heating vs DMSO (PISA); higher = thermal stabilisation; K562 lysate, 10 uM; active = over 0.2 and 3.5 SD of the protein, either way, in both replicates (recomputed)
vemurafenib = compound: CCCS(=O)(=O)Nc1ccc(F)c(C(=O)c2c[nH]c3ncc(-c4ccc(Cl)cc4)cc23)c1F [vemurafenib]
Method in brief: (§1)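 Soluble protein was defined as the supernatant remaining after 21,000xg for 90 min, following pooling of heated aliquots and adjustment to 0.5% NP-40 at 4°C. Before that, crude K562 extract at 1 mg/mL protein in PBS pH 7.4 with 1 mM MgCl2 was treated with 10 μM compound for 30 min and heated for 3 min across 48°C-58°C. Quantification used TMTpro 16plex LC-MS/MS with channel sums equalised, and values are log-two fold changes in thermal stability relative to solvent controls from duplicates.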

Sequences of proteins named here, by UniProt entry; tags and fusion partners are left off. A change or cut given only in a name is not applied to a line headed by its entry.
UniProt Q9H9A7: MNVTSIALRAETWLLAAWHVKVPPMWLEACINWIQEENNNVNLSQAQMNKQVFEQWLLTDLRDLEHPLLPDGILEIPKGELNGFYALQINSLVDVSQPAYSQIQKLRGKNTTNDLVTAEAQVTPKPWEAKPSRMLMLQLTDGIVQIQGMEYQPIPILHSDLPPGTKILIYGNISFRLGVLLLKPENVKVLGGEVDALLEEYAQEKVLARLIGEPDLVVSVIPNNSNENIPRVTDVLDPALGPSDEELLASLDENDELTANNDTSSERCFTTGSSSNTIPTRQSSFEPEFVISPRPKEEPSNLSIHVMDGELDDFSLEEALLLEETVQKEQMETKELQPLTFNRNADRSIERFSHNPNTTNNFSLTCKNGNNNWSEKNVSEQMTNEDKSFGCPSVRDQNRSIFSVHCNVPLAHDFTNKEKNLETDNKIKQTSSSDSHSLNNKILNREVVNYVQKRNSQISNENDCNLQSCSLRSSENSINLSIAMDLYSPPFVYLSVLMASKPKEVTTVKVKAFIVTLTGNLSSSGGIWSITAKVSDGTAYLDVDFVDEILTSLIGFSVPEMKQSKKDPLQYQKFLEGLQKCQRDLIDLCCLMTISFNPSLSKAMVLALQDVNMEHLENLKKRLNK
UniProt Q8NC42: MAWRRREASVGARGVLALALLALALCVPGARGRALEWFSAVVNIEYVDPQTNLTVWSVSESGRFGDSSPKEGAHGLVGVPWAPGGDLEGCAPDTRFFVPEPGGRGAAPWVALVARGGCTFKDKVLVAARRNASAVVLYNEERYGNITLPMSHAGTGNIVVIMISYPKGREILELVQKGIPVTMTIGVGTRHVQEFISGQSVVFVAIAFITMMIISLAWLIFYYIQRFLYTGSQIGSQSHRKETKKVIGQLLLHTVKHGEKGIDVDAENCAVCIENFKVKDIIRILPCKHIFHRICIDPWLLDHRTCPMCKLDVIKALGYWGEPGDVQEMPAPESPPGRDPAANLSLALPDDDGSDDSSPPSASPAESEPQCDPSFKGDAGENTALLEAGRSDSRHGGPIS
UniProt P0C7M4: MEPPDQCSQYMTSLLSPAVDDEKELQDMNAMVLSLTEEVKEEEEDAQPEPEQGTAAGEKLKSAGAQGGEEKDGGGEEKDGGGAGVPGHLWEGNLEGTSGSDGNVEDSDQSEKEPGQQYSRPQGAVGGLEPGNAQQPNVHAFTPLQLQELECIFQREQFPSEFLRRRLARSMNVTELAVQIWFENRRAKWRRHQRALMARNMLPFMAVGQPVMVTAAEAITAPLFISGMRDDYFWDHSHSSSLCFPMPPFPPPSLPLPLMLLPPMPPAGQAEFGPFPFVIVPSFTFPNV
UniProt P13489: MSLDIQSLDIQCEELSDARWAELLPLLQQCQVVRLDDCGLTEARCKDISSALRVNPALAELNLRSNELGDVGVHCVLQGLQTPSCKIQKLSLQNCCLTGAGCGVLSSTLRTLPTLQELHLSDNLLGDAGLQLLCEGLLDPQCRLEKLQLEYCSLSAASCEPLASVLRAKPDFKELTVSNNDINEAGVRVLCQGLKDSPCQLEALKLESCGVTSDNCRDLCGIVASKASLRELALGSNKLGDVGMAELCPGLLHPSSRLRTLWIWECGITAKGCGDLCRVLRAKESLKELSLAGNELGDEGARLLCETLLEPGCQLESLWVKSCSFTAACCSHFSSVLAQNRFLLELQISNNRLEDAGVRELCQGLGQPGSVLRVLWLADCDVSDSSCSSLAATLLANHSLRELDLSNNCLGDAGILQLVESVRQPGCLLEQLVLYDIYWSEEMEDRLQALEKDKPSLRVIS
UniProt Q9UBF6, whole entry, looked up: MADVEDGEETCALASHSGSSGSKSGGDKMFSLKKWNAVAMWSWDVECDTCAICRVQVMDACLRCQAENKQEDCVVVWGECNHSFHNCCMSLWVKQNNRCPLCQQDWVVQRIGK
UniProt P60602: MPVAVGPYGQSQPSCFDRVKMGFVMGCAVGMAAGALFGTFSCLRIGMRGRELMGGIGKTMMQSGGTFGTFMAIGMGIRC
UniProt Q96DM3: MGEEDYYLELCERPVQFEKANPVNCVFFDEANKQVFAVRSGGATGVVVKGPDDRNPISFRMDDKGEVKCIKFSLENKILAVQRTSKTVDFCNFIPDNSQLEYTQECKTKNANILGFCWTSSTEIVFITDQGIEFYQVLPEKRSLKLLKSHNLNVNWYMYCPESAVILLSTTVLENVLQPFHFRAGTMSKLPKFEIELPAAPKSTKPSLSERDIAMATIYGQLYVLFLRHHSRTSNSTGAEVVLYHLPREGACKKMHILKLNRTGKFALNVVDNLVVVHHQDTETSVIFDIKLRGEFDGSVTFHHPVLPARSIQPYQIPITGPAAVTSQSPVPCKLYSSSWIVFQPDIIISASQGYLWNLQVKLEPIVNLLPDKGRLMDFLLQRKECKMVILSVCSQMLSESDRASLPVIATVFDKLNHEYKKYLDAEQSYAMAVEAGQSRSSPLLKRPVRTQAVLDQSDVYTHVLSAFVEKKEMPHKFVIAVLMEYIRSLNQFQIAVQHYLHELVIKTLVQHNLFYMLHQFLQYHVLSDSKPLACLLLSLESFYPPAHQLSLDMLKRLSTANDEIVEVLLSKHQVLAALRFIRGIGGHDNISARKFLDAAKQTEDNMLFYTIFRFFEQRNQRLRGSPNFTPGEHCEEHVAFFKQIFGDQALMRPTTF
UniProt Q6ZS17: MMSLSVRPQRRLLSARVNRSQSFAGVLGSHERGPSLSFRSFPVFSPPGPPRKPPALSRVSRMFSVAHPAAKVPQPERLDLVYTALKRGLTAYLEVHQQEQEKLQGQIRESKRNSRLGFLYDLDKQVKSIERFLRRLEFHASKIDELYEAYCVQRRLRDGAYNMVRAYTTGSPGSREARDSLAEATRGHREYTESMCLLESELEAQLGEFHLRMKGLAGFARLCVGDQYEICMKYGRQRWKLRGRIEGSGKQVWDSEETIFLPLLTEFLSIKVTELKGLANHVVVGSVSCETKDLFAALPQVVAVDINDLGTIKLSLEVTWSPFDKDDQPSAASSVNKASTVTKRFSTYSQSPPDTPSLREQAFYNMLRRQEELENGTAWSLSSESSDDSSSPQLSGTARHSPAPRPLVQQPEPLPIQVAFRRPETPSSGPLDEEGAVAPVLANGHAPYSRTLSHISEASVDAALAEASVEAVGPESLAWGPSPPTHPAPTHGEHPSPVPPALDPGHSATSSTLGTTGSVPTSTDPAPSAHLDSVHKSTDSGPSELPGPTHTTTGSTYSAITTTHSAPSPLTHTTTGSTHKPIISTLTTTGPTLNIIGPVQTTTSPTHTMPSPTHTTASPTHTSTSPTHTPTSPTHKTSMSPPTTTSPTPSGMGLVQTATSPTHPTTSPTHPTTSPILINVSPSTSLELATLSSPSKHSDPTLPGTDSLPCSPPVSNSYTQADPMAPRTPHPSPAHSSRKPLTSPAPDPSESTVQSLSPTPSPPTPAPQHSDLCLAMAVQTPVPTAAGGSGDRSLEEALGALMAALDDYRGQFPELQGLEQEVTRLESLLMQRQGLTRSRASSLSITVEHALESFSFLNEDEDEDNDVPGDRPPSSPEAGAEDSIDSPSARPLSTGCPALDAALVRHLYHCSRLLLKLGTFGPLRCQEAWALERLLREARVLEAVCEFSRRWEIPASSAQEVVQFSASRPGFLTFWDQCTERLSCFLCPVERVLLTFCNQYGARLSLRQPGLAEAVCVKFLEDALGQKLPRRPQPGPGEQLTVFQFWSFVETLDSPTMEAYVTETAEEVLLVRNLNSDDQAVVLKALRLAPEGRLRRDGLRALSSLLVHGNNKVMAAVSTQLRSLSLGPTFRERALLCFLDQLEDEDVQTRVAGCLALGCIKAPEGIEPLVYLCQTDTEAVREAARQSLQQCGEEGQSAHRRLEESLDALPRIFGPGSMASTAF
UniProt Q9NVN3: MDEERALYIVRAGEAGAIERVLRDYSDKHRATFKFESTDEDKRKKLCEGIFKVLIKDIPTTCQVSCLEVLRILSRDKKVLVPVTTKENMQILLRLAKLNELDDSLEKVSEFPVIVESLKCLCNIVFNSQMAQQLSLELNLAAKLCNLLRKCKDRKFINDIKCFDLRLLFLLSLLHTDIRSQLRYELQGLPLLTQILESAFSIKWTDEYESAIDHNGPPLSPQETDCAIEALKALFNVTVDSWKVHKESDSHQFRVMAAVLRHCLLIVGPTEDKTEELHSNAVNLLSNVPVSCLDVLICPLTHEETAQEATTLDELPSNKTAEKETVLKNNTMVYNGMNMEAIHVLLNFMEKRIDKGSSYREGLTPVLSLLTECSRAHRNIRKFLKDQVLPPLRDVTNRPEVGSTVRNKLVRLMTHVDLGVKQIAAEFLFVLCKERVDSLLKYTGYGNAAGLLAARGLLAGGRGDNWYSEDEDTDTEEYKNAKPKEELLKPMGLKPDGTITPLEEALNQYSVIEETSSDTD
UniProt Q5TA31: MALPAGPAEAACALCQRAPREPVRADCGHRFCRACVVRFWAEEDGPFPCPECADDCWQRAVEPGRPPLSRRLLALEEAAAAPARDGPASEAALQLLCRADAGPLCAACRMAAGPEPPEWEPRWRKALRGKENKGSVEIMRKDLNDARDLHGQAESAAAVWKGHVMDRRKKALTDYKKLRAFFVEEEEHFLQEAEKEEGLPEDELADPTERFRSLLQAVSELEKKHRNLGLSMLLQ
UniProt Q6ZNA4: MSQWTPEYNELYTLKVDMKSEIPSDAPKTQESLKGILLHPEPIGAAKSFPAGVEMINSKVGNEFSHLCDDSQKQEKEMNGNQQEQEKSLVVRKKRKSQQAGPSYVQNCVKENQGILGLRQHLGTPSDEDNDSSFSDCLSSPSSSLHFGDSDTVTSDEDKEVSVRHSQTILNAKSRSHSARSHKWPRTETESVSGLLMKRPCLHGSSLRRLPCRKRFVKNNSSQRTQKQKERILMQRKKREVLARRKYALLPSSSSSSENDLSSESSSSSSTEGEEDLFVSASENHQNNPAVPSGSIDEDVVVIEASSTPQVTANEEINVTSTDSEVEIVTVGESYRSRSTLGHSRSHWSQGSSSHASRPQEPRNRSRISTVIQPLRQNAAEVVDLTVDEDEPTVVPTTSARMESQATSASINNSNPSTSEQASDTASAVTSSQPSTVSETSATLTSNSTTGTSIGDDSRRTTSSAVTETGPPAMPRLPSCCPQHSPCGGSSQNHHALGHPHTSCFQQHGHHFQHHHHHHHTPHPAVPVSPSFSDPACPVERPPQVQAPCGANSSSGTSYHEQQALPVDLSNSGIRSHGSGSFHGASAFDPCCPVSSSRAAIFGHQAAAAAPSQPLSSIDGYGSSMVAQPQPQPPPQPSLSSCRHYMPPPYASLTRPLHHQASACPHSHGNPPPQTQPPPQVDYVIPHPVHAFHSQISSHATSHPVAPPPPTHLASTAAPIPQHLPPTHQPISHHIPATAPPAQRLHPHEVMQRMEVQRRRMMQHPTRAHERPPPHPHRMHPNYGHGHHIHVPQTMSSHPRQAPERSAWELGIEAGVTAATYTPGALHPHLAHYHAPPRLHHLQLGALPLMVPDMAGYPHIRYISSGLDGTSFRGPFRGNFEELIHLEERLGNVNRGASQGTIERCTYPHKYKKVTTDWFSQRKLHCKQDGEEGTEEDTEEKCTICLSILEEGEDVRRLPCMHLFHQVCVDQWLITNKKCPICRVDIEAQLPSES
UniProt O60930: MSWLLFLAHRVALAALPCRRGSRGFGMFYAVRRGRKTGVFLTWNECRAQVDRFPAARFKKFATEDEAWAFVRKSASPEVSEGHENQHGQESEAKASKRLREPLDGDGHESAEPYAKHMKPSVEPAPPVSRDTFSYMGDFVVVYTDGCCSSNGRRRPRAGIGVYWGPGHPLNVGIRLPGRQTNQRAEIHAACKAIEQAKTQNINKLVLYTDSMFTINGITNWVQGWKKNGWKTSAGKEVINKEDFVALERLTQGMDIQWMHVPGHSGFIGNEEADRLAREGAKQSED
UniProt Q8WU17: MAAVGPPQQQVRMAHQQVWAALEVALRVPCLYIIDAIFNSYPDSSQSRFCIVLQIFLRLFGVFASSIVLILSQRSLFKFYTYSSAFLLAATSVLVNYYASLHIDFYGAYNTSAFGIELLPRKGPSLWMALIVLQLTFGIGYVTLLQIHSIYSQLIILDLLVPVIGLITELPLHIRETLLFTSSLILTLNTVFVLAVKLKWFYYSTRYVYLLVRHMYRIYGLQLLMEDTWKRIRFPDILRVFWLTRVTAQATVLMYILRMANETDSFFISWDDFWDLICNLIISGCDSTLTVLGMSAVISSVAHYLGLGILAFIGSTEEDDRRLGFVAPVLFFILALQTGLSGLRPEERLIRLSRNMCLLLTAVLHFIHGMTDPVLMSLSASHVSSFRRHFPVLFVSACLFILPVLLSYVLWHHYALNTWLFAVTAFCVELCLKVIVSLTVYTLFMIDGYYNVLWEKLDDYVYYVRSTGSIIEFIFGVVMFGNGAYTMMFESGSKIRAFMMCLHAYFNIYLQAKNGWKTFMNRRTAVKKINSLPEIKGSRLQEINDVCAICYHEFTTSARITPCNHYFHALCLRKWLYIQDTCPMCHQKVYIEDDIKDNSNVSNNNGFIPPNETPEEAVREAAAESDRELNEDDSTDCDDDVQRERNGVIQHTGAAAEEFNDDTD

[1] = compound: CCCS(=O)(=O)Nc1ccc(F)c(C(=O)c2c[nH]c3ncc(Cl)cc23)c1F
Method in brief: as §1

barasertib = compound: CCN(CCCOc1ccc2c(Nc3cc(CC(=O)Nc4cccc(F)c4)[nH]n3)ncnc2c1)CCOP(=O)(O)O [barasertib]
Method in brief: as §1

[2] = compound: CC[C@@H]1C(=O)N(C)c2cnc(Nc3ccc(C(=O)NC4CCN(C)CC4)cc3OC)nc2N1C1CCCC1
Method in brief: as §1

volasertib = compound: CC[C@@H]1C(=O)N(C)c2cnc(Nc3ccc(C(=O)N[C@H]4CC[C@H](N5CCN(CC6CC6)CC5)CC4)cc3OC)nc2N1C(C)C [volasertib]
Method in brief: as §1

[3] = compound: CCn1c(C(=O)N(C2CC2)C2CC2)cc2c3c(ncn3C)c(Nc3cc(C)n(C)n3)nc21
Method in brief: as §1

[4] = compound: CCn1cc(-c2ccnc3[nH]c(-c4cccc(CN(C)C)c4)cc23)c(-c2ccc(NC(=O)N(C)C)cc2)n1
Method in brief: as §1

[5] = compound: CN1CCC(CNc2ccc3ncc(-c4cccc(OC(F)(F)F)c4)n3n2)CC1
Method in brief: as §1

saracatinib = compound: CN1CCN(CCOc2cc(OC3CCOCC3)c3c(Nc4c(Cl)ccc5c4OCO5)ncnc3c2)CC1 [saracatinib]
Method in brief: as §1

sotrastaurin = compound: CN1CCN(c2nc(C3=C(c4c[nH]c5ccccc45)C(=O)NC3=O)c3ccccc3n2)CC1 [sotrastaurin]
Method in brief: as §1

Target | log2 fold change (vemurafenib) | log2 fold change [1] | log2 fold change (barasertib) | log2 fold change [2] | log2 fold change (volasertib) | log2 fold change [3] | log2 fold change [4] | log2 fold change [5] | log2 fold change (saracatinib) | log2 fold change (sotrastaurin)
RPF2 (UniProt Q9H7B2) | inactive: 0.009 | inactive: 0.029 | inactive: -0.067 | inactive: -0.024 | inactive: -0.021 | inactive: 0.022 | inactive: 0.037 | inactive: -0.217 | inactive: -0.02 | inactive: -0.009
RNF170 (UniProt Q96K19) | inactive: -0.08 | inactive: 0.02 | inactive: 0.189 |  | inactive: -0.131 |  | inactive: -0.015 | inactive: 0.09 | inactive: -0.201 | 
RMI1 (UniProt Q9H9A7) | inactive: 0.025 | inactive: 0.043 | inactive: -0.061 | inactive: -0.173 | inactive: -0.108 | inactive: -0.131 | inactive: 0.013 | inactive: -0.02 | inactive: -0.054 | inactive: 0.003
RPL11 (UniProt P62913) | inactive: 0.038 | inactive: -0.011 | inactive: -0.029 | inactive: 0.022 | inactive: -0.043 | inactive: -0.023 | inactive: -0.032 | inactive: 0.001 | inactive: -0.003 | inactive: 0.031
RNF149 (UniProt Q8NC42) | inactive: -0.026 | inactive: -0.15 | inactive: 0.026 |  | inactive: -0.063 | inactive: -0.162 | inactive: 0.343 | inactive: 0.02 | inactive: 0.021 | inactive: -0.081
RHOXF2B (UniProt P0C7M4) | inactive: 0.123 | inactive: -0.015 |  |  | inactive: 0.043 | inactive: 0.016 |  |  | inactive: 0.061 | 
RIOK1 (UniProt Q9BRS2) | inactive: 0.021 | inactive: 0.023 | inactive: 0.001 | inactive: 0.02 | inactive: -0.093 | inactive: 0.004 | inactive: 0.017 | inactive: 0.057 | inactive: 0.032 | inactive: 0.001
RPL26 (UniProt P61254) | inactive: -0.101 | inactive: 0.008 | inactive: 0.067 | inactive: -0.019 | inactive: -0.064 | inactive: 0.164 | inactive: 0.342 | inactive: -0.435 | inactive: -0.12 | inactive: -0.06
RPL13A (UniProt P40429) | inactive: 0.002 | inactive: 0.017 | inactive: -0.023 | inactive: -0.051 | inactive: 0 | inactive: 0.012 | inactive: -0.064 | inactive: 0.031 | inactive: -0.003 | inactive: -0.01
RNH1 (UniProt P13489) | inactive: 0.012 | inactive: -0.012 | inactive: 0 | inactive: 0.007 | inactive: -0.017 | inactive: -0.026 | inactive: 0.043 | inactive: 0.083 | inactive: -0.04 | inactive: -0.079
RHOT1 isoform 3 (UniProt Q8IXI2) | inactive: 0.053 | inactive: 0.03 | inactive: 0.05 | inactive: -0.031 | inactive: -0.035 | inactive: -0.001 | inactive: 0.024 | inactive: -0.059 | inactive: -0.053 | inactive: -0.015
RNF7 (UniProt Q9UBF6) | inactive: -0.02 | inactive: 0.047 | inactive: 0.052 | inactive: 0.093 | inactive: -0.007 | inactive: -0.027 | inactive: -0.049 | inactive: 0.067 | inactive: -0.053 | inactive: -0.108
RIF1 (UniProt Q5UIP0) | inactive: 0.013 | inactive: 0.02 | inactive: 0.026 | inactive: -0.027 | inactive: -0.038 | inactive: -0.013 | inactive: -0.057 | inactive: -0.002 | inactive: 0.018 | inactive: 0.007
RNASET2 (UniProt O00584) | inactive: 0.014 | inactive: -0.021 | inactive: -0.012 | inactive: -0.017 | inactive: 0.012 | inactive: -0.021 | inactive: 0.002 | inactive: 0.029 | inactive: -0.037 | inactive: -0.026
RNF20 (UniProt Q5VTR2) | inactive: -0.014 | inactive: 0.019 | inactive: 0.004 | inactive: 0.102 | inactive: -0.004 | inactive: 0.038 | inactive: -0.043 | inactive: 0.043 | inactive: -0.003 | inactive: 0.025
ROR2 (UniProt Q01974) | inactive: 0.006 | inactive: 0.096 | inactive: 0.008 | inactive: -0.028 | inactive: -0.003 | inactive: -0.019 | inactive: 0.028 | inactive: 0.007 | inactive: -0.021 | inactive: -0.078

Single records, as listed above. Order of values: log2 fold change (vemurafenib) | log2 fold change [1] | log2 fold change (barasertib) | log2 fold change [2] | log2 fold change (volasertib) | log2 fold change [3] | log2 fold change [4] | log2 fold change [5] | log2 fold change (saracatinib) | log2 fold change (sotrastaurin)
RIF1 (UniProt Q5UIP0) in the list: inactive: 0.013 | inactive: 0.02 | inactive: 0.026 | inactive: -0.027 | inactive: -0.038 | inactive: -0.013 | inactive: -0.057 | inactive: -0.002 | inactive: 0.018 | inactive: 0.007
RNASET2 (UniProt O00584) in the list: inactive: 0.014 | inactive: -0.021 | inactive: -0.012 | inactive: -0.017 | inactive: 0.012 | inactive: -0.021 | inactive: 0.002 | inactive: 0.029 | inactive: -0.037 | inactive: -0.026

Later entries

Target | log2 fold change (vemurafenib) | log2 fold change [1] | log2 fold change (barasertib) | log2 fold change [2] | log2 fold change (volasertib) | log2 fold change [3] | log2 fold change [4] | log2 fold change [5] | log2 fold change (saracatinib) | log2 fold change (sotrastaurin)
RNF113A (UniProt O15541) | inactive: 0.021 | inactive: -0.012 | inactive: -0.042 | inactive: 0.04 | inactive: 0.009 | inactive: -0.056 | inactive: -0.021 | inactive: 0.017 | inactive: 0.031 | inactive: -0.056
ROMO1 (UniProt P60602) | inactive: -0.093 | inactive: -0.007 |  | inactive: -0.02 | inactive: 0.012 | inactive: 0.43 |  |  | inactive: -0.024 | inactive: 0.008
RMC1 (UniProt Q96DM3) | inactive: 0.009 | inactive: 0.029 | inactive: 0.003 | inactive: 0.028 | inactive: -0.044 | inactive: -0.02 | inactive: 0 | inactive: 0.024 | inactive: 0.018 | inactive: -0.015
RNPEPL1 (UniProt Q9HAU8) | inactive: 0.086 | inactive: -0.218 |  |  | inactive: 0.207 | inactive: -0.11 | inactive: 0.052 | inactive: -0.011 | inactive: -0.038 | inactive: 0.06
RPL18 (UniProt Q07020) | inactive: -0.035 | inactive: -0.006 | inactive: -0.045 | inactive: 0.035 | inactive: 0.004 | inactive: -0.009 | inactive: 0.006 | inactive: -0.009 | inactive: 0.006 | inactive: 0.006
RIPOR1 isoform 4 (UniProt Q6ZS17) | inactive: 0.038 | inactive: -0.03 | inactive: 0.057 | inactive: 0.102 | inactive: -0.089 | inactive: 0.03 | inactive: 0.005 | inactive: -0.151 | inactive: 0.06 | inactive: 0.132
RPL28 (UniProt P46779) | inactive: 0 | inactive: -0.016 | inactive: -0.049 | inactive: -0.001 | inactive: 0.006 | inactive: -0.017 | active: 0.278 | inactive: -0.066 | inactive: -0.011 | inactive: -0.038
RIC8B isoform 1 (UniProt Q9NVN3) | inactive: 0.019 | inactive: 0.04 | inactive: 0.037 | inactive: -0.022 | inactive: -0.02 | inactive: -0.008 | inactive: 0.004 | inactive: -0.031 | inactive: 0.038 | inactive: -0.006
RNASE4 (UniProt P34096) | inactive: 0.124 | inactive: -0.01 |  | inactive: 0.029 | inactive: -0.005 | inactive: -0.044 |  |  | inactive: 0.128 | inactive: 0.103
RPL14 (UniProt P50914) | inactive: -0.034 | inactive: -0.002 | inactive: -0.017 | inactive: 0.013 | inactive: -0.031 | inactive: 0.021 | inactive: 0.032 | inactive: 0.02 | inactive: -0.022 | inactive: -0.12
RPL19 (UniProt P84098) | inactive: -0.052 | inactive: -0.001 | inactive: -0.008 | inactive: -0.008 | inactive: -0.022 | inactive: 0.01 | inactive: 0.046 | inactive: -0.097 | inactive: -0.01 | inactive: 0.004
RNF187 (UniProt Q5TA31) | inactive: 0.07 |  | inactive: 0.003 | inactive: 0.034 |  | inactive: 0.058 | inactive: -0.051 | inactive: 0.035 | inactive: 0.075 | inactive: 0.01
RNASEH2B (UniProt Q5TBB1) | inactive: -0.008 | inactive: 0.034 | inactive: -0.035 | inactive: -0.056 | inactive: -0.044 | inactive: -0.001 | inactive: 0.026 | inactive: -0.101 | inactive: -0.022 | inactive: 0.062
RNF111 isoform 3 (UniProt Q6ZNA4) |  |  |  |  |  |  |  |  |  | inactive: -0.009
RNASEH1 (UniProt O60930) |  |  |  |  |  |  | inactive: -0.023 | inactive: -0.002 |  | 
RNF139 (UniProt Q8WU17) | inactive: 0.138 |  |  |  |  |  | inactive: -0.242 | inactive: 0.021 |  | inactive: 0.028
